US20230277569A1, “Compositions and Methods for Treating, Ameliorating and/or Preventing Cancer and Kits for the Same” (priority 2022, published 2023)

Test: Phase I, cytochrome P450-mediated human liver microsome metabolism
Conditions: 0.5 μM; human liver microsomes

With Cc1ncc2n1-c1ccc(Cl)cc1C(c1ccccc1F)=NC2 [Midazolam, reference compound] the “half-life (t½)” value was 17 min.
